Measured data: PubChem BioAssay AID1053208 (Peter MacCallum Cancer Centre, 2014)

Purpose: 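Find knock-downs that sensitise mouse osteosarcoma cells to doxorubicin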 (primary screen)
Cell system: mouse osteosarcoma cells, early-passage culture from an engineered mouse model of fibroblastic bone tumour
Knock-down reagent: siRNA pool against mouse genes, 40 nM
Time to read-out: about 120 h (48 h before drug, then 72 h with drug)
Challenge: doxorubicin 100 nM for 72 h, roughly 30-40% inhibitory dose
Read-out: 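Luminescent ATP signal taken as viability with or without 100 nM doxorubicin for 72 h; mean of two wells set against non-targeting siRNA and turned into robust z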
Reading the numbers: viability z-score with doxorubicin: higher = more viable cells under doxorubicin; viability z-score without drug: higher = more viable cells with knock-down alone
Active means: 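Called active if knock-down leaves viability unchanged without drug (z within -2 to 2) but lowers it with doxorubicin (z at or under -2)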
Shown is a random part of about 17,000 reagents. Over the whole deposit, 788 (4.7%) are marked active. 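Calls rest on z-score classes alone; an extra cut-off of viability at most 70% of control was not applied to them.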 A number with no mark means an inactive call. Reagents against one gene are numbered here. Not all columns of the deposit are shown.

gene knocked down	reagent	combined z-score class	viability z-score with doxorubicin	viability z-score without drug
Ndfip2	1	no change with or without drug	-1.35	-0.17
Mid2	1	no change with or without drug	1.57	1.18
Fdxacb1	1	no change with or without drug	0	-0.51
Alox15	1	no change with or without drug	0	0.51
Bnc2	1	no change with or without drug	-0.11	-0.17
Rgs10	1	no change with or without drug	0.34	-0.51
Tomm34	1	no change with or without drug	-0.9	0.17
Gm4894	1	no change with or without drug	0	0.34
Defb14	1	no change with or without drug	0	-0.17
Ptpn22	1	no change with or without drug	-0.22	-1.18
Or51a8	1	no change with or without drug	-1.12	-0.51
Zfp106	1	no change with or without drug	-0.79	-1.01
Fam161b	1	no change with or without drug	0.34	1.85
Slc35a5	1	no change with or without drug	-1.24	-0.51
Gm38404	1	no change with or without drug	1.12	-0.17
Erich3	1	high cell count without drug only	1.46	2.53
D630005C06RIK	1	no change with or without drug	-1.57	1.52
Loxl1	1	high cell count without drug only	1.01	2.02
Kbtbd3	1	no change with or without drug	0	0.17
Wfdc15a	1	no change with or without drug	1.12	0.84
Mapk6	1	no change with or without drug	1.69	0.51
Dhps	1	no change with or without drug	0.34	-0.17
Cnnm2	1	no change with or without drug	0.22	-0.51
Fam229b	1	no change with or without drug	-0.45	-0.17
Ptov1	1	no change with or without drug	0	0.17
Miip	1	no change with or without drug	-1.35	1.18
Cideb	1	low cell count with doxorubicin only (active)	-2.14	-0.51
Lyzl4	1	high cell count without drug only	0.45	2.19
Crisp3	1	no change with or without drug	1.35	0.51
Pskh1	1	no change with or without drug	-1.01	0.17
Zfp672	1	no change with or without drug	-1.8	1.69
Zfp672	2	no change with or without drug	-1.91	0.84
Yae1d1	1	no change with or without drug	0.11	1.18
Ptger3	1	no change with or without drug	0.22	-0.34

A run of entries taken from the entries so far, for reference:
gene knocked down	reagent	combined z-score class	viability z-score with doxorubicin	viability z-score without drug
Ptov1	1	no change with or without drug	0	0.17
Miip	1	no change with or without drug	-1.35	1.18
Cideb	1	low cell count with doxorubicin only (active)	-2.14	-0.51
